Measurements as given in the supplement of paper PMC10849652.
The other results are listed elsewhere or left out.

Chains of the proteins cited; added tags and fusions are not shown. Lines headed by an entry give the natural chain unless they say otherwise; changes in a name come on top.
UniProt Q00653: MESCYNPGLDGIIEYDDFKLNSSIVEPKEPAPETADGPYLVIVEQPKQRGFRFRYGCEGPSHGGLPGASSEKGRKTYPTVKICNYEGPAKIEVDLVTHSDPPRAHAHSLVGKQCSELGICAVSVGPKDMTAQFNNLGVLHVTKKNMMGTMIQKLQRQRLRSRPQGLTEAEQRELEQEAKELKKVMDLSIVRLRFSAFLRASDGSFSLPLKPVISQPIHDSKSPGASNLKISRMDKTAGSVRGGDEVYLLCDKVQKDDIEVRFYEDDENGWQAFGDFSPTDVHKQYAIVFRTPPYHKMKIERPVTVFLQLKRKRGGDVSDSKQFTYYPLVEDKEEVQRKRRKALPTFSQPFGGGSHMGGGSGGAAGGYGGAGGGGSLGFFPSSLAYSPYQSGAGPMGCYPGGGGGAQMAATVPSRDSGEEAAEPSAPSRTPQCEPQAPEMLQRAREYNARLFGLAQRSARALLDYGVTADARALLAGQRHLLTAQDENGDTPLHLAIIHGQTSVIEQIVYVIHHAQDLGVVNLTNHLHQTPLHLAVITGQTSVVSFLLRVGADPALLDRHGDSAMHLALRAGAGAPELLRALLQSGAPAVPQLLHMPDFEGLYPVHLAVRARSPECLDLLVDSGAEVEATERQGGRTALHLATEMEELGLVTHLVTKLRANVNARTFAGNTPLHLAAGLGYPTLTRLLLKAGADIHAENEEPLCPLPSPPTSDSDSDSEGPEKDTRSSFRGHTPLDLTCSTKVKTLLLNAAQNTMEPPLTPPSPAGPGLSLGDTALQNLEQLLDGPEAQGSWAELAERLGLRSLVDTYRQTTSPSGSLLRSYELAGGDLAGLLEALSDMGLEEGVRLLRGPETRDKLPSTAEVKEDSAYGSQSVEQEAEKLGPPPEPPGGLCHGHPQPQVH
UniProt P04150: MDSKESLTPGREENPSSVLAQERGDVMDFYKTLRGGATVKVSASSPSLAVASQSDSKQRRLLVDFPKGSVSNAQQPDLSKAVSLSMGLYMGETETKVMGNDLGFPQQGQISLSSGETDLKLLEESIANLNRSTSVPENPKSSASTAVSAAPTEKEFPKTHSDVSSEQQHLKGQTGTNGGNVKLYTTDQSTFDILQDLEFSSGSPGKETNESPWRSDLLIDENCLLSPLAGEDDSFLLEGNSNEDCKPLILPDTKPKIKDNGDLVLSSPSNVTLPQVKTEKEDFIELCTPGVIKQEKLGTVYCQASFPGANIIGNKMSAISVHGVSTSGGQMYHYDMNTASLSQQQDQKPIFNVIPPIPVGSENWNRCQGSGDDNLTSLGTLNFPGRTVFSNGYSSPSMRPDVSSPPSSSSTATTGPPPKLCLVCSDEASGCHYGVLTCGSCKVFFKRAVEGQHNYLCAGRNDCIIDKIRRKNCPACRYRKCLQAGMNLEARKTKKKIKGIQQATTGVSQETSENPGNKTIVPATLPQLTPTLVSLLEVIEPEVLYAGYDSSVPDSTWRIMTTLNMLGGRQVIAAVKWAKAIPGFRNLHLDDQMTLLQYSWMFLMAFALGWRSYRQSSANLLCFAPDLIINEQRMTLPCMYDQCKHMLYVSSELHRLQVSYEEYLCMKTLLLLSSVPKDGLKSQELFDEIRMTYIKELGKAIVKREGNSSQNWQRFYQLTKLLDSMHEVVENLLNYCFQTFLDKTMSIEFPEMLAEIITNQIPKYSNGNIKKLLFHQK
UniProt Q7RTR2: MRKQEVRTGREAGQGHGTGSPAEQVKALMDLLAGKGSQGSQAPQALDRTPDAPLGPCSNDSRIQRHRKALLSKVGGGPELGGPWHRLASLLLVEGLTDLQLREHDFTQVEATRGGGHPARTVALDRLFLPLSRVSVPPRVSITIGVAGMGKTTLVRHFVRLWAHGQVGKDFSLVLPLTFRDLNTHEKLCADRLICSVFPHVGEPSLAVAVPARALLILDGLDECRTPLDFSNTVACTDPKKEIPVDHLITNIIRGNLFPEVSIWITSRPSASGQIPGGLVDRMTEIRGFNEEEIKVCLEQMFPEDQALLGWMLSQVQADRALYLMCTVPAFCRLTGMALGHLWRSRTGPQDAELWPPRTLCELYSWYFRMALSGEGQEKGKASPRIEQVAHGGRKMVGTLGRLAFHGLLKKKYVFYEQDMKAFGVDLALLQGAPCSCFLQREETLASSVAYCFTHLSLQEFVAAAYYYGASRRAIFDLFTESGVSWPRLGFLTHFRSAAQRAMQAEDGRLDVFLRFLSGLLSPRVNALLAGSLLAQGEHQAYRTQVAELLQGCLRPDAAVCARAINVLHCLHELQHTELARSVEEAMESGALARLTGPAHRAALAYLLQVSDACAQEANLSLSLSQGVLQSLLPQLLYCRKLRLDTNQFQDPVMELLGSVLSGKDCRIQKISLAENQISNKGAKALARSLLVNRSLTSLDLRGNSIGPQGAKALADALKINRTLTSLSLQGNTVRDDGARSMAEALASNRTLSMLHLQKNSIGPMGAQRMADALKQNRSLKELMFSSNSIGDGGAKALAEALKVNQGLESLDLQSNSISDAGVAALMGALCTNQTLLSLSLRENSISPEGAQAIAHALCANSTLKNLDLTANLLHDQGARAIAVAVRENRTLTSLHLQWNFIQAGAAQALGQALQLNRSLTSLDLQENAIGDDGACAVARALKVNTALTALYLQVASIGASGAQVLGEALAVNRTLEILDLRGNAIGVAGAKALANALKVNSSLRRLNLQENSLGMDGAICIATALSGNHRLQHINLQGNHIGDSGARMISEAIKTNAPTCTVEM
UniProt Q8TD19: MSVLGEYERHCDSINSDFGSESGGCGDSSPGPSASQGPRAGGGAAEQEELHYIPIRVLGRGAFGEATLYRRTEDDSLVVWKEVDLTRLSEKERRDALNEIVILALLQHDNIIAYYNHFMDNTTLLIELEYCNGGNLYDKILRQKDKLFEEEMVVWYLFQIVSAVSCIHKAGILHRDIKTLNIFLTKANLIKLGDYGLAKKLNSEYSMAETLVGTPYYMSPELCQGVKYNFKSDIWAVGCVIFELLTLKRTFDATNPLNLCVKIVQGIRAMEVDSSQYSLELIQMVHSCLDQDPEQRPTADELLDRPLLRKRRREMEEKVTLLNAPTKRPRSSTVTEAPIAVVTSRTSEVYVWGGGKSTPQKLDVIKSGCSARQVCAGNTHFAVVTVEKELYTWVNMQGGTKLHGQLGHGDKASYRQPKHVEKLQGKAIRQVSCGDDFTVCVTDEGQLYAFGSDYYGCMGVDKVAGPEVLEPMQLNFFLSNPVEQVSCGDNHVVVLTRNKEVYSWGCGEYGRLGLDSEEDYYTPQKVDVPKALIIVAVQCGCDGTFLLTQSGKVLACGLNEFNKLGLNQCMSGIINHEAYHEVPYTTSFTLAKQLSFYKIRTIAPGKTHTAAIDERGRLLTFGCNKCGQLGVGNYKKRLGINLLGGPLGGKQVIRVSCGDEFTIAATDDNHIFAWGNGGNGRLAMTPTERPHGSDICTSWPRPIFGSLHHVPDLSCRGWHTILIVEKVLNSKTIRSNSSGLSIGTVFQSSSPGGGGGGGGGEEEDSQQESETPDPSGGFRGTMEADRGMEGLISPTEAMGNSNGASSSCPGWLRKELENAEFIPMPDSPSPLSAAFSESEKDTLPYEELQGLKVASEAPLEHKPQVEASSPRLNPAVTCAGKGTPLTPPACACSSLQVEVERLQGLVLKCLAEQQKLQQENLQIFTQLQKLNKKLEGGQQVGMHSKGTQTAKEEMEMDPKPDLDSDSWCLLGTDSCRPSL
UniProt P18615, whole entry, looked up: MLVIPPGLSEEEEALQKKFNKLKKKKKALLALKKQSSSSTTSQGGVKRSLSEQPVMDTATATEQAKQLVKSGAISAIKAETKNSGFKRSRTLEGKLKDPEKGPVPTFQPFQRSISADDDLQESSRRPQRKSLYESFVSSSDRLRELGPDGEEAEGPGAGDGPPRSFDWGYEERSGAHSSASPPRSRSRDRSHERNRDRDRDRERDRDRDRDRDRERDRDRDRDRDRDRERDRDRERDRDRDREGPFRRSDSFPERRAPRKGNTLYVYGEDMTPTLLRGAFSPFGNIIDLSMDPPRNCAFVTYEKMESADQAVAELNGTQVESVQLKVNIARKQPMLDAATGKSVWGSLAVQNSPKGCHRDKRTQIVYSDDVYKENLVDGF
UniProt Q15155: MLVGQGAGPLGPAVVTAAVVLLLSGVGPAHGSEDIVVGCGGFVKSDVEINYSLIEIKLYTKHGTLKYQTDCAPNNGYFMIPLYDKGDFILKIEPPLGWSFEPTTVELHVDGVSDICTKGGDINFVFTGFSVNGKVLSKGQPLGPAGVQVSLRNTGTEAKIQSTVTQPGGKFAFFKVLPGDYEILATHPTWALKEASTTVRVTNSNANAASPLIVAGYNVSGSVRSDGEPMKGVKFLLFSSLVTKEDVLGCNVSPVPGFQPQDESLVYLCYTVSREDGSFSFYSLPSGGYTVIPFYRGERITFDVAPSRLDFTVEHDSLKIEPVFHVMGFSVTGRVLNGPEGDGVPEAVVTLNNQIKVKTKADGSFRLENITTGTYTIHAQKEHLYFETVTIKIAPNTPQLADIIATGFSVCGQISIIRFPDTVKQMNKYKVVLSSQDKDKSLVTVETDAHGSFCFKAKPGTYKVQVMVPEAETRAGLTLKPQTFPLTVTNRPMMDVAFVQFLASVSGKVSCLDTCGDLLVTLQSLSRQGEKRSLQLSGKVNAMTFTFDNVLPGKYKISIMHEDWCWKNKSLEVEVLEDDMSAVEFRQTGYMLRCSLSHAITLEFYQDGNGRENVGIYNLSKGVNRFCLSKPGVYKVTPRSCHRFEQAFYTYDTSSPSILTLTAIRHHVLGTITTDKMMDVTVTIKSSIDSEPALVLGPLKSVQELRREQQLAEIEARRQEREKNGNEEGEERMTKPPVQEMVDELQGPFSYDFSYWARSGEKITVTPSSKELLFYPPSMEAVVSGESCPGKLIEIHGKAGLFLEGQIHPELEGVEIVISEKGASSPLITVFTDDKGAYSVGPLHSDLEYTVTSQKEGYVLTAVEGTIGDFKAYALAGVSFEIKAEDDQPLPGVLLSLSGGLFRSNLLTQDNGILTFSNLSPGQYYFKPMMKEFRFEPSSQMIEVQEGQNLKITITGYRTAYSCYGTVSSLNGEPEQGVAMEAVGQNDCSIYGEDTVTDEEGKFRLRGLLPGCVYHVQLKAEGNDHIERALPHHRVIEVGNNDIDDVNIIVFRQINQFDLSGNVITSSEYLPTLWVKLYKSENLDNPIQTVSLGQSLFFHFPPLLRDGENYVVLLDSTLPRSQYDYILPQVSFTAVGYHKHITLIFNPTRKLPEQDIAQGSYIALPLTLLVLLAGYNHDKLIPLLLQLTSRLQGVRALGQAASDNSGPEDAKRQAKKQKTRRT
UniProt O00221: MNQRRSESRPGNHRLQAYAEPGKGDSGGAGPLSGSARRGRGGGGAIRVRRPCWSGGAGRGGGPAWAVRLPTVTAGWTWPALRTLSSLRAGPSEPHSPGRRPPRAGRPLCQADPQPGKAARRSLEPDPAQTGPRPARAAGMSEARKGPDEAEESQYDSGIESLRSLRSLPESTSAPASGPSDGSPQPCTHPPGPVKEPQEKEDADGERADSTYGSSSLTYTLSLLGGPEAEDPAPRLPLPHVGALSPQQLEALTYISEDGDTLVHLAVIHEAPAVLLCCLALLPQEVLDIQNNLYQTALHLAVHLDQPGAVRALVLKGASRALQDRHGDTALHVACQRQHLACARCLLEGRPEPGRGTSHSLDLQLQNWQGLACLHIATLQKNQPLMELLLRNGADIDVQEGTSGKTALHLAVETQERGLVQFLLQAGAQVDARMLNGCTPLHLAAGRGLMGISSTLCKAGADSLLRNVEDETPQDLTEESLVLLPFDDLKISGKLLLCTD
UniProt P22392, whole entry, looked up: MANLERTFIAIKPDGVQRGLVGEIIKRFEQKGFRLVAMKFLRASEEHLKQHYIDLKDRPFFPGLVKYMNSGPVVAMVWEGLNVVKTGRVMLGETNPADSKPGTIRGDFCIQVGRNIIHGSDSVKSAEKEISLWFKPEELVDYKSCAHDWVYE
UniProt Q8N8Q9: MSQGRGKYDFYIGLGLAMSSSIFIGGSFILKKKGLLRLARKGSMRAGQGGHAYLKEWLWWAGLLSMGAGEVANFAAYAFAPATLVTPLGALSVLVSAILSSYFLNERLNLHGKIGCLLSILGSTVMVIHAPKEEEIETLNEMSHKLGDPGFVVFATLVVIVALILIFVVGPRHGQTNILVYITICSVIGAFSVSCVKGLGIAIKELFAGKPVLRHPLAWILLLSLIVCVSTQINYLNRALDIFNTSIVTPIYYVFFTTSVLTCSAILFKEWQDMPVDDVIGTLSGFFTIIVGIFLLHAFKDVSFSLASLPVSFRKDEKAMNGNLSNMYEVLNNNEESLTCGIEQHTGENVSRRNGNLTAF

Compound: c1cn2cc(-c3ccc4cn[nH]c4c3)nc(Nc3ccc(N4CCOCC4)cc3)c2n1 [entospletinib]
Assay: log2 fold change, soluble protein after heating vs DMSO (PISA); higher = thermal stabilisation; K562 cells, 10 uM, 30 min; active = over 0.2 and 3.5 SD of the protein, either way, in both replicates (recomputed)
Method in brief: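 For each measurement, 10 μM compound was applied for 30 min to K562 cells at 2×10^6 cells/mL. Aliquots were heated for 3 min across 48°C-58°C, pooled, and extracted in PBS with 0.5% NP-40 at 4°C; the supernatant after 21,000xg for 90 min was soluble protein. This was quantified by TMTpro 16plex LC-MS/MS with channel sums equalised, and thermal stability was reported relative to control samples from duplicates, on a log2 fold-change scale.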

log2 fold change, inactive:
NFKB2 (UniProt Q00653) 0.056
NIT2 (UniProt Q9NQR4) 0
NFIA isoform 4 (UniProt Q12857) 0.047
NLRP2 (UniProt Q9NX02) 0.092
NR3C1 isoform 3 (UniProt P04150) 0.22
NLRC3 isoform 2 (UniProt Q7RTR2) 0.037
NEK9 (UniProt Q8TD19) 0.045
NELFE isoform 3 (UniProt P18615) -0.035
NOMO1 (UniProt Q15155) 0.029
NFKBIE (UniProt O00221) 0.016
NME2 isoform 2 (UniProt P22392) 0.01
NFKB1 isoform 2 (UniProt P19838) 0.071
NIPA2 (UniProt Q8N8Q9) 0.032
NR2F6 (UniProt P10588) -0.082
